Experimental data: the supplement of paper PMC4683952
Some of the results follow. Cut-off read from the data, not from the text of the source: active = 2 or more and inactive = the rest. This data set is noisy: repeats of one test often differ as much as different tests do.

tested on: Lgr5 (MarsCy1-Lgr5-EGFP, U2OS); experiment: cell-surface Lgr5 expression (SCi1 fluorescence, background-subtracted) relative to WT DMSO (fold of DMSO control); higher = more Lgr5 at the plasma membrane; conditions: U2OS MarsCy1-Lgr5-EGFP stable; treatment time: overnight; library: ActiProbe-5K (TimTec); 25 µM

cell-surface Lgr5 expression, inactive:
Cc1ccc(/C=N/NC(=O)c2cc(C)oc2C)o1 1.03, C=CCn1c(-c2ccccc2)n[nH]c1=S 1, CC(=O)c1c(C)n(O)c2ccc(Cl)cc2c1=O 1.26, O=c1[nH]c2c(c3c1c(=O)oc1ccccc13)CCCC2 1.41, CCOC(=O)C1(c2csc(N)n2)COC(=O)C1 (stereo not drawn) 1.3, CC(C)(C)SCCNS(=O)(=O)c1ccc2c(c1)OCCO2 1.07, O=C(CN1CCN(CC(=O)Nc2nccs2)CC1)Nc1nccs1 1.12, O=C1Nc2ccccc2/C1=N/N1C(=O)CNC1=O 1.12, O=C(CCCCC(=O)NNC(=O)c1cccs1)NNC(=O)c1cccs1 1.11, Cc1cc(=O)c2c(=O)oc3ccccc3c2o1 1.15, CC1(C)Cc2c(c(N3CCOCC3)nc3sc4c(NN)ncnc4c23)CO1 1.51, O=C(c1[nH]nc([N+](=O)[O-])c1Br)N1CCSCC1 1.28, COc1cc(-c2nnc(Nc3ccc4c(c3)OCO4)o2)cc(OC)c1OC 1.15, Cc1nc2c(o1)NC(N)=C(C#N)C2c1cccs1 (stereo not drawn) 0.97, CCC(C(=O)O)N1C(=O)NC2C1N(C)C(=O)N2C (stereo not drawn) 1.32, COc1coc(C(=O)O)c1OC 1.18, COn1c2c(c3c4nonc4ccc31)CCCC2 0.613, CCCCOC(=O)CC1NCCNC1=O (stereo not drawn) 1.14, O=C1C(=O)N(CN2CC=CCC2)c2ccccc21 0.9, CCn1c(C)cc(C=O)c1C 1.17, O=[N+]([O-])c1cnn(-c2cnc3c([N+](=O)[O-])cnn3c2)c1 1, CC1(C)CC(O)CC(C)(C)N1CCO 1.25, COc1cc(-n2nnn([C@H]3CC(=O)[C@@H]4OC[C@H]3O4)c2=S)c(OC)cc1Cl 1.31, Cc1nc2sc3c(=O)[nH]nnc3c2c(C)c1Cl 1.1, N/C(=N\O)c1ccc(Br)cc1 1.14, O=C(O)c1ccnn1C(F)F 1.09, OC1(c2cn3ccccc3n2)CCCCC1 0.968, Brc1ccccc1C1OCC2(CO1)COC(c1ccccc1Br)OC2 (stereo not drawn) 1.26, c1cn(CCC2CCNCC2)cn1 1.13, Cc1ccc(-c2nnc(S)n2/N=C\c2ccc(C(C)(C)C)cc2)cc1 0.798, O=S(=O)(O)c1cc(O)c2c(O)cc(S(=O)(=O)O)cc2c1 1.12, O=S1(=O)OC(c2ccc(O)c(Cl)c2)(c2ccc(O)c(Cl)c2)c2ccccc21 1.01, Cc1ccc(C(C2=C(O)CC(C)(C)CC2=O)C2C(=O)CC(C)(C)CC2=O)s1 (stereo not drawn) 0.908, O=C1CCC([N+](=O)[O-])C(c2cccs2)N1 (stereo not drawn) 1.21, O=[N+]([O-])c1sc2ccccc2c1N1CCOCC1 1.01, COc1ccc(C(/N=C/N(C)C)c2nccc3cc(OC)c(OC)cc23)cc1OC (stereo not drawn) 1.33, O=[N+]([O-])c1ccc2c(c1)C1C=CCC1C(C1CC=CCC1)N2 (stereo not drawn) 0.651, Sc1nnc(-c2ccco2)n1/N=C/c1ccco1 1.02, O=C(CCC(=O)NNC(=O)C1CC1)NNC(=O)C1CC1 1.01, S=c1n(CN2CCOCC2)nnn1C1CCCCC1 1.44, Cc1n[nH]c(C)c1C12CC3CC(CC(C3)C1)C2 1.2, CC(C)c1ccc(C2=NN(c3ccccc3)C3(CC2)SC(c2ccccc2)=NN3c2ccccc2)cc1 (stereo not drawn) 1.11, O=[N+]([O-])c1cc2nccnc2cc1Cl 1.34, Nc1nc2c(s1)CCCC2 1.16, CC(C)(C)c1ccc(-c2nc(-c3ccc(Br)o3)no2)cc1 1.2, Clc1ccc2c(c1)C1OCCC1C(c1ccco1)N2 (stereo not drawn) 1.05, C=C(C)C[C@H]1CC=C[C@H](CC(=C)C)N1 1.2, O=[N+]([O-])c1ccc(C2Nc3cc(Br)ccc3C3C=CCC32)cc1 (stereo not drawn) 0.245, COCc1n[nH]c2c1C(c1ccsc1)C(C#N)=C(N)O2 (stereo not drawn) 1.16, Brc1ccc(C2C3=C(Nc4ncnn42)c2ccccc2OC3c2ccccc2)cc1 (stereo not drawn) 1.1, O=C1OC(c2ccccc2F)=N/C1=C\c1cccc2ccccc12 1.19, Cc1nn(CC(=O)Nc2cnn(C(C)C)c2)c(C)c1Cl 0.986, O=S(=O)(NC1CCCCCC1)c1ccc(F)cc1 1.22, CN1CCN(S(=O)(=O)c2ccc(Br)cc2)CC1 1.33, CON(C)c1nc(Cl)nc(N(C)C)n1 1.02, CCCc1nc2c(o1)C(C(=O)OC)C(C)(C)CC2=O (stereo not drawn) 0.809, Clc1cc(-c2ccccn2)nc(-c2ccccn2)c1 0.389, c1ccc(-c2nc(-c3ccc4c(c3)sc3ccccc34)c(-c3ccccc3)[nH]2)cc1 0.699, Cn1cnnc1Sc1cc(N2CCCC2)ccc1[N+](=O)[O-] 0.992, CC(=O)OCC(=O)C1CCC2C3CC=C4CC(O)CCC4(C)C3CCC12C (stereo not drawn) 1.35, Nc1nnc(SCC(=O)Nc2nccs2)s1 1.34, O=C(O)c1cc(=O)cc(C(=O)O)o1 1.02, CCOC(=O)C1=C(C)NC(=O)NC1c1ccc(C)s1 (stereo not drawn) 1.08, O=C1c2cccnc2-c2[nH]c(=O)ccc21 0.975, CC1CN(C)CC(C)C1=O (stereo not drawn) 1.2, O=C1OC(c2ccccc2)=C/C1=C/c1ccc2c(c1)OCO2 1.23, N#Cc1sc2nc(-c3ccncc3)cc(C(F)(F)F)c2c1N 1.44, O=C(c1ccc2[nH]c(=O)oc2c1)c1ccc2[nH]c(=O)oc2c1 0.986
